Some of the results follow.
Legend:
Assay in all cases: log2 fold change, soluble protein after heating vs DMSO (PISA); higher = thermal stabilisation; K562 cells, 10 uM, 30 min; active = over 0.2 and 3.5 SD of the protein, either way, in both replicates (recomputed)
[1] = compound: C1=CC=C(C=C1)[C@H](COC2=CC3=C(C=C2)NC(=O)N3)NC(=O)C4=CC=CN(C4=O)CC5=CC(=C(C=C5)F)F
Outline: (§1)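 K562 cells at 2×10^6 cells/mL were treated for 30 min with 10 μM compound, and aliquots were heated for 3 min over 48°C-58°C before pooling. Extraction used PBS with 0.5% NP-40 at 4°C, and soluble protein was the supernatant after 21,000xg for 90 min, measured by TMTpro 16plex LC-MS/MS with channel sums equalised. Thermal stability values, relative to control samples and from duplicates, are log2 fold changes.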

By UniProt entry, the sequences of proteins in these tests, tags left out. Where a name states a change or a piece, a line headed by the entry shows the natural chain unless it says otherwise.
UniProt P19838: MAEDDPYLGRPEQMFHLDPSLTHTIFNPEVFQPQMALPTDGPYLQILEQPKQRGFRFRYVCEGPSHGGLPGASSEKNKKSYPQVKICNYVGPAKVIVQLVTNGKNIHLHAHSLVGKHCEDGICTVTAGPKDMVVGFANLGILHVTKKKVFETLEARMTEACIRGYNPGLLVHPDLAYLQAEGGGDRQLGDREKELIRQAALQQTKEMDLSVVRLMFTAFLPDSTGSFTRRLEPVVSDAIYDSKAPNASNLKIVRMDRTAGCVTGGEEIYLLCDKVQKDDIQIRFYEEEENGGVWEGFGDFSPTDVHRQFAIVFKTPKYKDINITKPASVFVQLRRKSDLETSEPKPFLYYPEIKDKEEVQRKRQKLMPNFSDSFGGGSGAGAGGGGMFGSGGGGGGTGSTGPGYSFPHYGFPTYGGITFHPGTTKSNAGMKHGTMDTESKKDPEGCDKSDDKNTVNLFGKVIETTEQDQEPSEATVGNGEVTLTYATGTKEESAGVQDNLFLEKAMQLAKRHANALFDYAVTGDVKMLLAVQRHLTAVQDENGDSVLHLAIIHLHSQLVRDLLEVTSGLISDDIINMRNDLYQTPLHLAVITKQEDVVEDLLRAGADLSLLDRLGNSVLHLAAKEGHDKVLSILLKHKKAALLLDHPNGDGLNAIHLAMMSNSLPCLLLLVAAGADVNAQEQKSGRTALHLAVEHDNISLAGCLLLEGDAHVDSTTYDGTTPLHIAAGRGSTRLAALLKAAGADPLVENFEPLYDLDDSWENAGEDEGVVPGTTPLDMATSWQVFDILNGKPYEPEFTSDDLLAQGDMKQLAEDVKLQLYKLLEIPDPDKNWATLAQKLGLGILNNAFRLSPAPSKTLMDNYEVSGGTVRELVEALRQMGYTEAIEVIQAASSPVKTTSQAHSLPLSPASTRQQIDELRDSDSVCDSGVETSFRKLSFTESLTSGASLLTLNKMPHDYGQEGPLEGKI
UniProt Q8TDX7: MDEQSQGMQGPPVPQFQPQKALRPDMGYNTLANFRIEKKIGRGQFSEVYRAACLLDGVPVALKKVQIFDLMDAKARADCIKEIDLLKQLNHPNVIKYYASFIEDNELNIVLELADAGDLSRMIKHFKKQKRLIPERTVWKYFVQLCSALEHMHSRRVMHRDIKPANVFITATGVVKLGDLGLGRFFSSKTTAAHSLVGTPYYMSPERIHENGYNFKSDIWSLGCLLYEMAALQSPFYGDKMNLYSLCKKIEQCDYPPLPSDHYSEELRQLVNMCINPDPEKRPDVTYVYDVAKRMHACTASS
UniProt Q13287: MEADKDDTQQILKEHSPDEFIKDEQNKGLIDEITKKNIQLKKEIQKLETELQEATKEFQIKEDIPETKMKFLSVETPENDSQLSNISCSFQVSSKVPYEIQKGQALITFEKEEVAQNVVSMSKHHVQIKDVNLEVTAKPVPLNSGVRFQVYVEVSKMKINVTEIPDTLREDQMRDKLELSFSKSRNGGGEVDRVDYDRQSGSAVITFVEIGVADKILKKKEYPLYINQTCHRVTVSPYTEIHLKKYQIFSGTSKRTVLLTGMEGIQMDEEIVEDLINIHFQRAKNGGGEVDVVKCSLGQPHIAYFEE
UniProt Q9ULX3: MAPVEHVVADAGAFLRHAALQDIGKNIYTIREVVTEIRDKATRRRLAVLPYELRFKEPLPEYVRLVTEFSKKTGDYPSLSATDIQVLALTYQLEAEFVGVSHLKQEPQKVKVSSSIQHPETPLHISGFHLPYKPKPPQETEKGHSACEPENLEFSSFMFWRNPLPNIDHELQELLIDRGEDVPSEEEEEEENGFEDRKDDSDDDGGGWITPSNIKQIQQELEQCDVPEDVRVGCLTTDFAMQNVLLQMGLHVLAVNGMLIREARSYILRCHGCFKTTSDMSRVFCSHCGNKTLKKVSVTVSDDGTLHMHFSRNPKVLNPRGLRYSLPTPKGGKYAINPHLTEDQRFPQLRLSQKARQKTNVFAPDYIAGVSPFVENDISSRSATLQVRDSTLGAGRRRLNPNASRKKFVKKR
UniProt Q9BYG3: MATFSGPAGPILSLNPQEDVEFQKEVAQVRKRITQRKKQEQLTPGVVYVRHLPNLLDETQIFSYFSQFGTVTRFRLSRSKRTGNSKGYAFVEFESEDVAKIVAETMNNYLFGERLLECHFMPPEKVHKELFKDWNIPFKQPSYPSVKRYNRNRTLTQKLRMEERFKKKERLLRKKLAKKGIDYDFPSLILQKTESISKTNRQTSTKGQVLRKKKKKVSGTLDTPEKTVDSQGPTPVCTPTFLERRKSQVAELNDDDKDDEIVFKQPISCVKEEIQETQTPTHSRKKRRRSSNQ
UniProt Q9Y5B8, whole entry, looked up: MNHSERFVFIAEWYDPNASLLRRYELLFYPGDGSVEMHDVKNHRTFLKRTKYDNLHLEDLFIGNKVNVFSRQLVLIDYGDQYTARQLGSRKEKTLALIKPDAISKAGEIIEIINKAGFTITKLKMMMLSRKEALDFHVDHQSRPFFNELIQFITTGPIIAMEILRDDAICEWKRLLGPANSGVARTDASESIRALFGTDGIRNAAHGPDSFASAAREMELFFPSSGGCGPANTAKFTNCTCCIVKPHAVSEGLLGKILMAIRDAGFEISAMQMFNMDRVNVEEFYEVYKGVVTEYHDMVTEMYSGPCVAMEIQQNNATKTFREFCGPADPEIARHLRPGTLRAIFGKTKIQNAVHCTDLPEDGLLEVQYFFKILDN
UniProt P35240: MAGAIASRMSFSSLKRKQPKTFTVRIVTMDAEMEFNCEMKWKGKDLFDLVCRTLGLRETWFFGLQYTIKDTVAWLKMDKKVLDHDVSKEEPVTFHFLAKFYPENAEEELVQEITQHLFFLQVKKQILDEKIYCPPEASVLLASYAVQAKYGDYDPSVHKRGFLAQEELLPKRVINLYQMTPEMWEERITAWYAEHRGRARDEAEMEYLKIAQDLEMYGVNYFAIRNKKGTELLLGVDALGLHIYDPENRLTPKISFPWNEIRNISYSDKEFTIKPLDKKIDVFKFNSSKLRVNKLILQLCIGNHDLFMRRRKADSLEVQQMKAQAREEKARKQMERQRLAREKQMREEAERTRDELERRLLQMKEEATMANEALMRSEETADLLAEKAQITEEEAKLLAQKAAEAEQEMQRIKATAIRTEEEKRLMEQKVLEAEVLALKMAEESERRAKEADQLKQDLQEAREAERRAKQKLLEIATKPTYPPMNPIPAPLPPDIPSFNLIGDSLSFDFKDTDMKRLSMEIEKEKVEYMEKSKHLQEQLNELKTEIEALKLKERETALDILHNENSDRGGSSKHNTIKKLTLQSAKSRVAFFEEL
UniProt P22392, whole entry, looked up: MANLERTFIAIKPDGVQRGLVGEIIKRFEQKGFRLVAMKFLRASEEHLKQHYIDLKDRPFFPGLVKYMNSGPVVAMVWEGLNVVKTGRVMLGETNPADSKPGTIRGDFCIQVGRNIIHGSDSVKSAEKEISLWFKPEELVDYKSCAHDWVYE
UniProt Q9BXD5: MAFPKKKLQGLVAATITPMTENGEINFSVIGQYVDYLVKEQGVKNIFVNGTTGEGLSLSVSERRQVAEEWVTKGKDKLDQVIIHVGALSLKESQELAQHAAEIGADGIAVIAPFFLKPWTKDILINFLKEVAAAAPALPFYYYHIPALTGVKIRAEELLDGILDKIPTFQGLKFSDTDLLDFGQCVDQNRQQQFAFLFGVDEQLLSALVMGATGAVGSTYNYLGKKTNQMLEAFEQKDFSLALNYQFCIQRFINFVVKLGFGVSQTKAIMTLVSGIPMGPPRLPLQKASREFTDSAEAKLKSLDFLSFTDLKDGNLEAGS
UniProt Q8WX92, whole entry, looked up: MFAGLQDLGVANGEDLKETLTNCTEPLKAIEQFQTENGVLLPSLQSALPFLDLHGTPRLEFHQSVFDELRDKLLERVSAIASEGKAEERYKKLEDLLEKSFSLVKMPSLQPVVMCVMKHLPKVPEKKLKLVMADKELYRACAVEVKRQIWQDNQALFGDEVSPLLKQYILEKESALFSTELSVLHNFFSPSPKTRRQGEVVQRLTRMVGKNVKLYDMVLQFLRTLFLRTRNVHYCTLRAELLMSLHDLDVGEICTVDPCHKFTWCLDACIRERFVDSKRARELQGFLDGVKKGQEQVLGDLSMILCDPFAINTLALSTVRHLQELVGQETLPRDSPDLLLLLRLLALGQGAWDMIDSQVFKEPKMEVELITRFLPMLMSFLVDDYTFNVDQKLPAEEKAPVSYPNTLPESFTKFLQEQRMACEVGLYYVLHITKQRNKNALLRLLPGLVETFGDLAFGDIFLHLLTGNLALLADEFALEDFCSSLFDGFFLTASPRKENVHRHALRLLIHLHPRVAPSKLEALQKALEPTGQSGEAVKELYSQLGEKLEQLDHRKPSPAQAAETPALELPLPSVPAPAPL
UniProt Q8N5F7: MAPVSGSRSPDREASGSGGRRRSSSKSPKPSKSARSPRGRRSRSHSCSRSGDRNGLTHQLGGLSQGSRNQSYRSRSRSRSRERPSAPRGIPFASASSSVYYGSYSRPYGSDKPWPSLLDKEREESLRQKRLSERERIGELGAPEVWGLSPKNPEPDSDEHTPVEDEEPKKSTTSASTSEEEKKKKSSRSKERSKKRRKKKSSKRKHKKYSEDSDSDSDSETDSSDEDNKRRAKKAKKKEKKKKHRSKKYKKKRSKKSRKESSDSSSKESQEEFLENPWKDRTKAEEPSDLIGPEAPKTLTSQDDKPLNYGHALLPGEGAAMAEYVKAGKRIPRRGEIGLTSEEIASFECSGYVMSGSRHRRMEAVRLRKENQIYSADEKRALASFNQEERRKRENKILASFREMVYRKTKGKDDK
UniProt Q9BS92: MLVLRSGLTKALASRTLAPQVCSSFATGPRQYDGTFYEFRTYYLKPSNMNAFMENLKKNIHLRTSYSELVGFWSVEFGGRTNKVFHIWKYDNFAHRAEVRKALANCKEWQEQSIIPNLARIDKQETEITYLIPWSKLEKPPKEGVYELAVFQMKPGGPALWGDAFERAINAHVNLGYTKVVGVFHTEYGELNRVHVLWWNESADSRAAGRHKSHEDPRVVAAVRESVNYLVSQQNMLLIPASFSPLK
UniProt Q6ZNB6: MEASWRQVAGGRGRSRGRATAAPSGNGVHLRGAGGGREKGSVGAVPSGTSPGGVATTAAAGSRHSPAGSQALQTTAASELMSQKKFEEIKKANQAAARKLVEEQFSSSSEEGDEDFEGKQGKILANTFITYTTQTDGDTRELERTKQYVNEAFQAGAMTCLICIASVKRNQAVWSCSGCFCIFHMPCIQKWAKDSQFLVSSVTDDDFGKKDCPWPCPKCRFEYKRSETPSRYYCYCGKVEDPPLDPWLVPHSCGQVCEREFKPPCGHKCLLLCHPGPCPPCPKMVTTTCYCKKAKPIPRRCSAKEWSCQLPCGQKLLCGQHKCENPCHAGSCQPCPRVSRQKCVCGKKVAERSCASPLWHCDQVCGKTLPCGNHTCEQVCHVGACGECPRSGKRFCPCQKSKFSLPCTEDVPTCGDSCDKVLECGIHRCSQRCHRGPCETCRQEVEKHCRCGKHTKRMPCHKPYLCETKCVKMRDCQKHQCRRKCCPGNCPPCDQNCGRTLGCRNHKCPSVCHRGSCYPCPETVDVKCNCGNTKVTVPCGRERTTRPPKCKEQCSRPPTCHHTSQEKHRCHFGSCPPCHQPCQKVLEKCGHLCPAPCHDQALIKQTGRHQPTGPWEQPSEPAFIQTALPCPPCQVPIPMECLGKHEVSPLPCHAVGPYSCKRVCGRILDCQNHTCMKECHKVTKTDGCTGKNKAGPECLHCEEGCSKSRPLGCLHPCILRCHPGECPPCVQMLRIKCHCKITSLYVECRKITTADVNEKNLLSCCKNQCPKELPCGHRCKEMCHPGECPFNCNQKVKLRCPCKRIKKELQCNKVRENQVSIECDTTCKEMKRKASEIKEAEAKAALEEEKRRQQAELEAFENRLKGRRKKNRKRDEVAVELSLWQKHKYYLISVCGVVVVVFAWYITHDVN
UniProt P61916: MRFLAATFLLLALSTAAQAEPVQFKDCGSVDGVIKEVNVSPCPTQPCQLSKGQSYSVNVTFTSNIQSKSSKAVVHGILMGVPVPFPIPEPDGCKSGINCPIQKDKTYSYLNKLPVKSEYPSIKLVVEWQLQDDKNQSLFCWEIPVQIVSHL
UniProt O75414: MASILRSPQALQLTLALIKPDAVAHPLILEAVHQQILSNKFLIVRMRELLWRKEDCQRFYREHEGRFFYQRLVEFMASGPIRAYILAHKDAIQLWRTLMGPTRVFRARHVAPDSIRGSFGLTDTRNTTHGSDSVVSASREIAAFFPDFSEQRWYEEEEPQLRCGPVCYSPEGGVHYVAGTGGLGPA
UniProt Q9UNZ2: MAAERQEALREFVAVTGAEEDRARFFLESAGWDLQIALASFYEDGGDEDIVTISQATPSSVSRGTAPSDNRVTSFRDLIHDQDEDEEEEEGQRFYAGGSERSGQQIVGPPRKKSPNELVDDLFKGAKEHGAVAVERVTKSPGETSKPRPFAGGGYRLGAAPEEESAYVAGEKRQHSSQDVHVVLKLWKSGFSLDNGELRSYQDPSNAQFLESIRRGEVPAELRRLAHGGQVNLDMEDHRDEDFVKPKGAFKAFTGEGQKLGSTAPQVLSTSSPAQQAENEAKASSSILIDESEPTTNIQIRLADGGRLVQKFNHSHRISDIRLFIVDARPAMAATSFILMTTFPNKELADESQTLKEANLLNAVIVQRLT

[2] = compound: CC1=C(SC2=C1C(=N[C@H](C3=NN=C(N32)C)CC(=O)N)C4=CC=C(C=C4)Cl)C
Outline: as §1

[3] = compound: CC1=C2C(=CC=C1)N=C(N(C2=O)C3=CC=CC=C3C)CN4C=NC5=C(N=CN=C54)N
Outline: as §1

[4] = compound: Cc1sc2c(c1C)C(c1ccc(Cl)cc1)=N[C@@H](CC(=O)OC(C)(C)C)c1nnc(C)n1-2
Outline: as §1

[5] = compound: c1ccc([C@@H]2C[C@H]2NC2CCNCC2)cc1
Outline: as §1

Measured: log2 fold change

NFKB1 isoform 2 (UniProt P19838)
inactive: [1] -0.253 | [2] 0.104 | [3] 0.048 | [4] 0.038 | [5] -0.176

NIPSNAP1 (UniProt Q9BPW8)
inactive: [1] 0.01 | [2] 0.088 | [3] 0.143 | [4] -0.021 | [5] -0.102

NEK7 (UniProt Q8TDX7)
inactive: [1] 0.062 | [2] 0.048 | [3] 0.053 | [4] -0.019 | [5] -0.077

NIF3L1 (UniProt Q9GZT8)
inactive: [1] 0.119 | [2] 0.002 | [3] 0.024 | [4] -0.011 | [5] 0.011

NFE2 (UniProt Q16621)
inactive: [1] 0.054 | [2] -0.004 | [3] 0.12 | [4] 0.087 | [5] 0.145

NOA1 (UniProt Q8NC60)
inactive: [1] -0.031 | [2] 0.101 | [3] 0.178 | [4] 0.02 | [5] 0

NMI (UniProt Q13287)
inactive: [1] 0.024 | [2] 0.067 | [3] 0.067 | [4] 0.003 | [5] 0.022

NR2C2 isoform 2 (UniProt P49116)
inactive: [1] -0.011 | [2] 0.046 | [3] 0.059 | [4] 0.042 | [5] 0.024

NIPSNAP2 (UniProt O75323)
inactive: [1] -0.038 | [2] 0.008 | [3] 0.036 | [4] -0.019 | [5] -0.051

NIBAN2 (UniProt Q96TA1)
inactive: [1] -0.021 | [2] 0.035 | [3] 0.069 | [4] -0.012 | [5] -0.018

NFATC2 (UniProt Q13469)
inactive: [1] -0.063 | [2] 0.097 | [3] 0.077 | [4] 0.023 | [5] 0.021

NOB1 (UniProt Q9ULX3)
inactive: [1] -0.048 | [2] -0.033 | [3] 0.048 | [4] 0.067 | [5] -0.06

NFIC (UniProt P08651)
inactive: [1] 0.042 | [2] 0.05 | [3] 0.022 | [4] -0.004 | [5] 0.03

NISCH (UniProt Q9Y2I1)
inactive: [1] 0.044 | [2] -0.02 | [3] 0.036 | [4] 0.044 | [5] -0.044

NIFK (UniProt Q9BYG3)
inactive: [1] 0.007 | [2] -0.104 | [3] -0.476 | [4] 0.066 | [5] -0.052

NME7 (UniProt Q9Y5B8)
inactive: [1] -0.112 | [2] 0.098 | [3] 0.175 | [4] 0.096 | [5] -0.038

NOL11 (UniProt Q9H8H0)
inactive: [1] 0.007 | [2] 0 | [3] -0.008 | [4] -0.014 | [5] 0.025

NOP53 (UniProt Q9NZM5)
inactive: [1] 0.103 | [2] -0.332 | [3] -0.415 | [4] 0.353 | [5] 0.097

NFATC3 (UniProt Q12968)
inactive: [1] -0.03 | [2] 0.081 | [3] 0.12 | [4] 0.16 | [5] 0.065

NRBP1 (UniProt Q9UHY1)
inactive: [1] 0.055 | [2] 0.027 | [3] 0.066 | [4] -0.039 | [5] 0.01

NF2 (UniProt P35240)
inactive: [1] -0.01 | [2] 0.02 | [3] 0.093 | [4] -0.01 | [5] -0.013

NME2 isoform 2 (UniProt P22392)
inactive: [1] 0.035 | [2] 0.043 | [3] 0.041 | [4] 0 | [5] 0.013

NSDHL (UniProt Q15738)
inactive: [1] 0.029 | [2] 0.047 | [3] 0.019 | [4] 0 | [5] -0.034

NPL (UniProt Q9BXD5)
inactive: [1] -0.014 | [2] -0.006 | [3] 0.067 | [4] 0.062 | [5] -0.015

NELFB isoform 2 (UniProt Q8WX92)
inactive: [1] -0.098 | [2] 0.12 | [3] 0.123 | [4] -0.05 | [5] -0.023

NKAP (UniProt Q8N5F7)
inactive: [1] -0.013 | [2] 0.148 | [3] 0.049 | [4] 0.078 | [5] 0.171

NIPSNAP3B (UniProt Q9BS92)
inactive: [1] 0.045 | [2] -0.031 | [3] 0.017 | [4] -0.021 | [5] 0.099

NFXL1 (UniProt Q6ZNB6)
inactive: [1] -0.023 | [2] -0.03 | [3] 0.084 | [4] -0.009 | [5] -0.066

NEMP1 (UniProt O14524)
inactive: [1] 0.015 | [2] -0.003 | [3] 0.036 | [4] 0.048 | [5] -0.018

NGLY1 (UniProt Q96IV0)
inactive: [1] -0.084 | [2] 0.01 | [3] 0.114 | [4] 0.014 | [5] -0.046

NR2F2 (UniProt P24468)
inactive: [1] -0.061 | [2] 0.015 | [3] 0.044 | [4] -0.045 | [5] -0.051

NOP2 isoform 4 (UniProt P46087)
inactive: [1] 0.184 | [2] -0.494 | [3] -0.694 | [4] 0.409 | [5] -0.009

NEU1 (UniProt Q99519)
inactive: [1] -0.116 | [2] 0.004 | [3] 0.047 | [4] -0.043 | [5] -0.025

NPM1 (UniProt P06748)
inactive: [1] 0.086 | [2] -0.273 | [3] -0.265 | [4] 0.203 | [5] 0

NPEPPS (UniProt P55786)
inactive: [1] -0.044 | [2] 0.064 | [3] 0.159 | [4] -0.003 | [5] -0.051

NPM3 (UniProt O75607)
inactive: [1] 0.066 | [2] -0.08 | [3] -0.087 | [4] 0.107 | [5] -0.019

NMNAT1 (UniProt Q9HAN9)
inactive: [1] 0.1 | [2] -0.055 | [3] -0.088 | [4] 0.304 | [5] 0.02

NR2C2AP isoform 2 (UniProt Q86WQ0)
inactive: [1] -0.016 | [2] 0.043 | [3] 0.081 | [4] -0.067 | [5] 0.032

NPC2 (UniProt P61916)
inactive: [1] -0.01 | [2] -0.017 | [3] -0.024 | [4] -0.012 | [5] 0.033

NOC2L (UniProt Q9Y3T9)
inactive: [1] -0.002 | [2] 0.037 | [3] 0.08 | [4] -0.005 | [5] -0.008

NMT1 (UniProt P30419)
inactive: [1] 0 | [2] 0.032 | [3] -0.001 | [4] 0.076 | [5] -0.018

NPC1 (UniProt O15118)
inactive: [1] -0.034 | [2] -0.038 | [3] -0.017 | [4] 0.009 | [5] 0.049

NLRP2 (UniProt Q9NX02)
inactive: [1] -0.084 | [2] 0 | [3] 0.107 | [4] 0 | [5] -0.025

NFU1 (UniProt Q9UMS0)
inactive: [1] 0.04 | [2] 0.055 | [3] 0.056 | [4] -0.088 | [5] -0.036

NME6 (UniProt O75414)
inactive: [1] 0.033 | [2] 0.035 | [3] 0.032 | [4] -0.096 | [5] -0.008

NQO1 (UniProt P15559)
inactive: [1] 0.07 | [2] 0.122 | [3] 0.083 | [4] -0.015 | [5] -0.072

NF1 (UniProt P21359)
inactive: [1] -0.075 | [2] 0.078 | [3] 0.137 | [4] -0.015 | [5] -0.134

NOMO1 (UniProt Q15155)
inactive: [1] -0.133 | [2] -0.406 | [3] -0.113 | [4] -0.145 | [5] 0.163

NRBF2 (UniProt Q96F24)
inactive: [1] 0.003 | [2] 0.035 | [3] 0.07 | [4] 0.069 | [5] 0.025

NMD3 (UniProt Q96D46)
inactive: [1] -0.046 | [2] 0.049 | [3] 0.01 | [4] -0.02 | [5] -0.11

NENF (UniProt Q9UMX5)
inactive: [1] 0.038 | [2] 0.024 | [3] 0 | [4] -0.041 | [5] 0.004

NSFL1C isoform 5 (UniProt Q9UNZ2)
inactive: [1] -0.005 | [2] 0.073 | [3] 0.055 | [4] -0.019 | [5] 0

NFIC isoform 6 (UniProt P08651)
inactive: [3] -0.029

NOL3 isoform 3 (UniProt O60936)
inactive: [2] -0.035 | [3] -0.069 | [4] 0.045 | [5] 0.182

Quoted from the entries so far (two entries):
NENF (UniProt Q9UMX5)
inactive: [1] 0.038 | [2] 0.024 | [3] 0 | [4] -0.041 | [5] 0.004

NSFL1C isoform 5 (UniProt Q9UNZ2)
inactive: [1] -0.005 | [2] 0.073 | [3] 0.055 | [4] -0.019 | [5] 0

— the supplement of paper PMC10849652
